Record: PubChem BioAssay AID504774 (Drosophila RNAi Screening Center, 2011)
The deposit covers about 23,000 reagents; below is a random part of those with a known target gene and a result. 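Values are quantile-normalised luminescence on an arbitrary scale; higher means more cells surviving MMS.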 Further read-outs or replicates are left out here.

- Aim: 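Fly genes whose loss alters survival after alkylation damage to DNA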 (primary screen)
- Cell system: Drosophila Kc167 cells
- Reagents: long dsRNA against Drosophila genes, about 0.25 µg dsRNA per well
- Timing: about 6 days: 3 days knock-down, then 3 days with or without MMS
- Conditions: methyl methanesulphonate 0.004% (w/v) for 3 days after knock-down
- Measured: 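ATP-dependent luminescence as a measure of live cells in MMS-exposed wells, quantile normalised within each plate, with replicate values also given as a mean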
- Reading the numbers: mean viability with MMS and viability with MMS: higher = more surviving cells after MMS

For miple2 [DRSC08723], the entry reads mean viability with MMS 3.60e6; viability with MMS, replicate 1 = 4.11e6.
CG32191 [DRSC10522] showed mean viability with MMS 3.61e6; viability with MMS, replicate 1 = 4.15e6.
For wda [DRSC15579] the deposit lists mean viability with MMS 3.64e6; viability with MMS, replicate 1 = 4.06e6.
With knock-down of wda [DRSC22351], the screen gave mean viability with MMS 3.46e6; viability with MMS, replicate 1 = 3.89e6.
Against IleRS [DRSC11667], the entry reads mean viability with MMS 3.50e6; viability with MMS, replicate 1 = 3.96e6.
Knock-down of Slik [DRSC04471] gave: mean viability with MMS 3.65e6; viability with MMS, replicate 1 = 3.97e6.
Silencing of tx (retired record) [DRSC16931] gave: mean viability with MMS 3.55e6; viability with MMS, replicate 1 = 4.02e6.
Knock-down of egl [DRSC04682] resulted in: mean viability with MMS 3.62e6; viability with MMS, replicate 1 = 4.17e6.

Individual results from the entries so far:
Under “viability with MMS, replicate 1”, wda [DRSC15579] shows 4.06e6
Value for wda [DRSC22351] in “mean viability with MMS”: 3.46e6
Result of IleRS [DRSC11667] in “mean viability with MMS”: 3.50e6
For “viability with MMS, replicate 1”, egl [DRSC04682] has 4.17e6

The list goes on.
Against CG10914 [DRSC06010], the values are mean viability with MMS 3.60e6; viability with MMS, replicate 1 = 4.02e6.
After knock-down of Odj [DRSC16234], the screen gave mean viability with MMS 3.57e6; viability with MMS, replicate 1 = 4.06e6.
For CG11425 [DRSC11657], the values are mean viability with MMS 3.40e6; viability with MMS, replicate 1 = 3.88e6.
CG3880 [DRSC04428] gave mean viability with MMS 3.54e6; viability with MMS, replicate 1 = 4.06e6.
CG3880 [DRSC21404] showed mean viability with MMS 3.51e6; viability with MMS, replicate 1 = 4.05e6.
Depletion of Nubp2 [DRSC11758] came out at: mean viability with MMS 3.47e6; viability with MMS, replicate 1 = 3.96e6.
Against bma [DRSC09896] the deposit lists mean viability with MMS 3.54e6; viability with MMS, replicate 1 = 3.94e6.
With knock-down of bma [DRSC10164], the screen gave mean viability with MMS 3.72e6; viability with MMS, replicate 1 = 4.14e6.
Gk1 [DRSC08533] gave mean viability with MMS 3.46e6; viability with MMS, replicate 1 = 3.99e6.
Gk1 [DRSC08534] scored mean viability with MMS 3.50e6; viability with MMS, replicate 1 = 4.00e6.
Silencing of ND-23 [DRSC15526] came out at: mean viability with MMS 3.44e6; viability with MMS, replicate 1 = 3.90e6.
With knock-down of Vps60 [DRSC10610], the screen gave mean viability with MMS 3.65e6; viability with MMS, replicate 1 = 4.20e6.
For CG30178 [DRSC21911] the deposit lists mean viability with MMS 3.47e6; viability with MMS, replicate 1 = 3.97e6.
Against Arms [DRSC03856], the values are mean viability with MMS 3.54e6; viability with MMS, replicate 1 = 4.05e6.
Silencing of Arms [DRSC03857] resulted in: mean viability with MMS 3.51e6; viability with MMS, replicate 1 = 4.08e6.
With knock-down of Arms [DRSC04052], the screen gave mean viability with MMS 3.68e6; viability with MMS, replicate 1 = 4.12e6.
Arms [DRSC04256] gave mean viability with MMS 3.35e6; viability with MMS, replicate 1 = 3.74e6.
